PubChem BioAssay AID743121 | NCATS, 2013
Assay: 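Genes whose silencing strengthens cell killing by camptothecin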 (primary screen). System: MDA-MB-231 cells, a human breast cancer line. Reagent: single siRNA against human genes, 20 nM siRNA (0.8 pmol per well). Time to read-out: 120 h (drug added 48 h after transfection, read 72 h later). Conditions: camptothecin 20 nM (about EC30) for 72 h; vehicle 0.1% DMSO in parallel plates. Read-out: 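CellTiter-Glo ATP signal, scaled to control siRNA as percent viability; sensitisation given as log2 of untreated divided by camptothecin-treated viability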. Reading the numbers: log2 vehicle/camptothecin viability: higher = stronger sensitisation to camptothecin; viability with camptothecin and viability without drug: higher = more viable cells. Active means: 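Active genes have an RSA gene-level p-value below 0.001, computed from the ratios of their separate siRNAs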.
The deposit covers about 26,000 reagents; this is a part drawn at random. 167 of all reagents (0.63%) count as active. 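Calls are per gene from RSA p-values that are not deposited; an individual active-marked siRNA can sensitise only weakly.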 A number with no mark means an inactive call. Reagent sequences are not shown.

| Target gene | PubChem SID | log2 vehicle/camptothecin viability | viability with camptothecin (% of control) | viability without drug (% of control) |
| --- | --- | --- | --- | --- |
| GJB3 (gap junction protein beta 3) | SID164366619 | 0.161 | 77.2 | 86.3 |
| GJB3 (gap junction protein beta 3) | SID164366620 | 0.176 | 55.4 | 62.6 |
| GJB3 (gap junction protein beta 3) | SID164366621 | 0.14 | 31 | 34.1 |
| GJB3 (gap junction protein beta 3) | SID164366623 | -0.165 | 87.2 | 77.8 |
| ITPR3 (inositol 1,4,5-trisphosphate receptor type 3) | SID164372167 | -0.288 | 58.7 | 48.1 |
| ITPR3 (inositol 1,4,5-trisphosphate receptor type 3) | SID164372168 | -0.152 | 94.7 | 85.3 |
| ITPR3 (inositol 1,4,5-trisphosphate receptor type 3) | SID164372169 | -0.758 | 76.9 | 45.5 |
| SLC22A17 | SID164473260 | -0.117 | 107 | 99 |
| SLC22A17 | SID164473262 | -0.0359 | 63 | 61.4 |
| SLC22A17 | SID164473263 | -0.0596 | 87.9 | 84.3 |
| SLC22A17 | SID164473264 | -0.329 | 103 | 81.8 |
| ITGA8 (integrin subunit alpha 8) | SID164398117 | -0.381 | 68.5 | 52.6 |
| ITGA8 (integrin subunit alpha 8) | SID164398121 | -0.0201 | 57.2 | 56.4 |
| ITGA8 (integrin subunit alpha 8) | SID164398122 | -0.532 | 79.5 | 55 |
| ITGA8 (integrin subunit alpha 8) | SID164398123 | -0.0868 | 57 | 53.7 |
| PIM2 (Pim-2 proto-oncogene, serine/threonine kinase) | SID164415128 | -0.207 | 105 | 90.7 |
| PIM2 (Pim-2 proto-oncogene, serine/threonine kinase) | SID164415129 | -0.04 | 68.5 | 66.6 |
| PIM2 (Pim-2 proto-oncogene, serine/threonine kinase) | SID164415132 | -0.104 | 55.3 | 51.5 |
| PIM2 (Pim-2 proto-oncogene, serine/threonine kinase) | SID164415133 | -0.109 | 107 | 98.8 |
| STAB2 (stabilin 2) | SID164485236 | -0.0677 | 100 | 95.4 |
| STAB2 (stabilin 2) | SID164485237 | 0.186 | 95.9 | 109 |
| STAB2 (stabilin 2) | SID164485240 | 0.593 | 67.4 | 102 |
| STAB2 (stabilin 2) | SID164485241 | -0.457 | 99.7 | 72.6 |
| CPN1 (carboxypeptidase N subunit 1) | SID164359575 | 0.0718 | 91.4 | 96 |
| CPN1 (carboxypeptidase N subunit 1) | SID164359578 | 0.195 | 91.5 | 105 |
| CPN1 (carboxypeptidase N subunit 1) | SID164359579 | 0.362 | 51.2 | 65.8 |
| CPN1 (carboxypeptidase N subunit 1) | SID164359580 | 0.0285 | 76.9 | 78.4 |
| FGR (FGR proto-oncogene, Src family tyrosine kinase) | SID164364819 | -0.637 | 78 | 50.1 |
| FGR (FGR proto-oncogene, Src family tyrosine kinase) | SID164364821 | 0.316 | 11.4 | 14.2 |
| FGR (FGR proto-oncogene, Src family tyrosine kinase) | SID164364822 | -0.189 | 69.7 | 61.1 |
| FGR (FGR proto-oncogene, Src family tyrosine kinase) | SID164364825 | -0.601 | 95 | 62.6 |

5 entries from above, set out differently:
{"Target gene": "STAB2 (stabilin 2)", "PubChem SID": "SID164485236", "log2 vehicle/camptothecin viability": -0.0677, "viability with camptothecin (% of control)": 100, "viability without drug (% of control)": 95.4}
{"Target gene": "STAB2 (stabilin 2)", "PubChem SID": "SID164485237", "log2 vehicle/camptothecin viability": 0.186, "viability with camptothecin (% of control)": 95.9, "viability without drug (% of control)": 109}
{"Target gene": "STAB2 (stabilin 2)", "PubChem SID": "SID164485240", "log2 vehicle/camptothecin viability": 0.593, "viability with camptothecin (% of control)": 67.4, "viability without drug (% of control)": 102}
{"Target gene": "STAB2 (stabilin 2)", "PubChem SID": "SID164485241", "log2 vehicle/camptothecin viability": -0.457, "viability with camptothecin (% of control)": 99.7, "viability without drug (% of control)": 72.6}
{"Target gene": "CPN1 (carboxypeptidase N subunit 1)", "PubChem SID": "SID164359575", "log2 vehicle/camptothecin viability": 0.0718, "viability with camptothecin (% of control)": 91.4, "viability without drug (% of control)": 96}

Continued.
| Target gene | PubChem SID | log2 vehicle/camptothecin viability | viability with camptothecin (% of control) | viability without drug (% of control) |
| --- | --- | --- | --- | --- |
| ASIC3 (acid sensing ion channel subunit 3) | SID164402975 | -0.315 | 76.2 | 61.3 |
| ASIC3 (acid sensing ion channel subunit 3) | SID164402976 | -0.169 | 94 | 83.6 |
| ASIC3 (acid sensing ion channel subunit 3) | SID164402978 | 0.134 | 63.5 | 69.7 |
| ASIC3 (acid sensing ion channel subunit 3) | SID164402979 | -0.592 | 46.7 | 31 |
| MPZL1 (myelin protein zero like 1) | SID164401165 | 0.285 | 73.6 | 89.6 |
| MPZL1 (myelin protein zero like 1) | SID164401166 | -0.0776 | 95.6 | 90.6 |
| MPZL1 (myelin protein zero like 1) | SID164401168 | -0.214 | 50.4 | 43.5 |
| MPZL1 (myelin protein zero like 1) | SID164401170 | -0.114 | 92.7 | 85.7 |
| MSH2 (mutS homolog 2) | SID164376121 | -0.22 | 105 | 90.1 |
| MSH2 (mutS homolog 2) | SID164376122 | -0.303 | 99 | 80.3 |
| MSH2 (mutS homolog 2) | SID164376123 | 0.0911 | 47.4 | 50.5 |
| MSH2 (mutS homolog 2) | SID164376124 | 1.11 | 8.61 | 18.5 |
| API5 (apoptosis inhibitor 5) | SID164398280 | -0.136 | 107 | 97.7 |
| API5 (apoptosis inhibitor 5) | SID164398281 | -0.131 | 85.6 | 78.1 |
| API5 (apoptosis inhibitor 5) | SID164398283 | -0.771 | 110 | 64.3 |
| API5 (apoptosis inhibitor 5) | SID164398284 | 0.233 | 26.2 | 30.8 |
